Among the data in publication PMC7819943, “Rice protein-binding microarrays: a tool to detect cis-acting elements near promoter regions in rice” are binding signal values, retold here.

The chains behind the UniProt entries cited, without tags or fusion partners.
UniProt Q0JBA9, entry or part of it: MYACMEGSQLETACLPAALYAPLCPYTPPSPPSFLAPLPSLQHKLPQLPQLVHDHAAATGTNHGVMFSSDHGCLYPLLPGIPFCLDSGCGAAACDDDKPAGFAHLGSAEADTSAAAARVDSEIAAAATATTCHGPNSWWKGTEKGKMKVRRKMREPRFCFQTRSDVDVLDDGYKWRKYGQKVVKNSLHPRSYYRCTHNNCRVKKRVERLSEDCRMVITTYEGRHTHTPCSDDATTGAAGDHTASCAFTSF

This is one part of the list.

The target of the test is OsWRKY34 (Oryza sativa, UniProt Q0JBA9 1-250). The test can be described thus: protein-binding microarray (RPBM); PBS, 2% BSA, 51.3 ng/ul salmon testes DNA, 50 uM zinc acetate, 200 nM TF, 25 C, 1 h; high values mean tight binding. The conditions noted are these: protein: recombinant; tags: N-terminal polyhistidine and DsRed monomer fusion (pET32a); label: CyDye5-dUTP incorporated in the synthesized complementary strand; 3' TTTTT single-stranded linker to array surface; dsDNA, one strand shown. In short, it runs like this:
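Per-feature fluorescence intensity (arbitrary units), read on an Axon 4000B scanner, is the binding signal. Transcription factors carrying an N-terminal polyhistidine tag and DsRed fusion were expressed in E. coli BL21-CodonPlus and purified on Ni–NTA. A custom Agilent array, made double-stranded by primer extension with Cy5-dUTP and blocked with 2% BSA, was incubated with 200 nM protein in PBS, 2% BSA, salmon testes DNA and 50 µM zinc acetate at 25 °C for 1 h and then washed.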
In the case of “ACTAAAATTTTGTGTTTTTATCACCTGTTACATCATATTGCGGAGTCACCTAGTGCAG”, the binding signal was 8200 fluorescence intensity (a.u.).

On to “TCTCGACCCGCCGGCCTCCTCCCTTGTCCAGCGTCGCCGCCGGAGTCACCTAGTGCAG”, for which the binding signal was 9870 fluorescence intensity (a.u.).

For “AGAGACCCTTTTCCTTAATTTTGTTTGATCATTCCCTTTCCGGAGTCACCTAGTGCAG”, the binding signal is 9130 fluorescence intensity (a.u.).

For “CTTATTGTAGCCTGATCACCACTATTGGTCCCTGTTGGAACGGAGTCACCTAGTGCAG”, the binding signal is 8720 fluorescence intensity (a.u.).

With “GTTATAATTTTTTCGTGACAACCACTCACCCTTCTCAATACGGAGTCACCTAGTGCAG”, the binding signal is 8520 fluorescence intensity (a.u.).

With “GGCTTCTTTGATATCTTGTTTGCATCTCCCGTGTACTGTACGGAGTCACCTAGTGCAG”, the binding signal is 11000 fluorescence intensity (a.u.).

Regarding “ACGTTGTCGTGGTAGTTGGCATTGATCTCGGAGTTCGGCTCGGAGTCACCTAGTGCAG”, the binding signal was 9170 fluorescence intensity (a.u.).

In the case of “CCCCACGCCACAGCCTCTTATCCCACACGCGGACCAACAGCGGAGTCACCTAGTGCAG”, the binding signal was 8860 fluorescence intensity (a.u.).

As to “GGAGTACTGTACTGGTTTAGCCTTTTCAGCTTGTCTGTTTCGGAGTCACCTAGTGCAG”, the binding signal was 10900 fluorescence intensity (a.u.).

On to “TGAATCATGACAAATTTGCTTACAATTCGTTGCTGTAGTGCGGAGTCACCTAGTGCAG”, for which the binding signal is 8140 fluorescence intensity (a.u.).

For the sequence “TAGCCGCCACCTTCCGATCGCCCGCATCCGGATCGGTCTCCGGAGTCACCTAGTGCAG”, the binding signal was 13000 fluorescence intensity (a.u.).

Consider “GGAGGGAGAGGGGTCAGGCTCAATTGCGTCTCCTTCGTATCGGAGTCACCTAGTGCAG”, for which the binding signal was 8200 fluorescence intensity (a.u.).

For “GCTGCTCGCGGTTTGGCATTGTCTCTCTAGAGTCTAGACTCGGAGTCACCTAGTGCAG”, the binding signal was 12600 fluorescence intensity (a.u.).

“GCGCTTACATGGCGGTGTTGATCTAGTCTGTGGTGTTGACCGGAGTCACCTAGTGCAG”: the binding signal was 12600 fluorescence intensity (a.u.).

On to “GTTTTGGCTGACGTGGCGCCTACGTGGTTTGTTTGACCTACGGAGTCACCTAGTGCAG”, for which the binding signal is 10200 fluorescence intensity (a.u.).

Take “GGCTACTAGGTTTTCTAACTTCTTTTTATTGGTTAAGATTCGGAGTCACCTAGTGCAG”: the binding signal was 9620 fluorescence intensity (a.u.).

“ACTCCCTCCGTATTTTAATATATGACGCCGTTGACTTATTCGGAGTCACCTAGTGCAG”: the binding signal is 13800 fluorescence intensity (a.u.).

As to “ATATATATATATATATATATATACTCAGACCGTACTTTGTCGGAGTCACCTAGTGCAG”, the binding signal was 11400 fluorescence intensity (a.u.).

“TCAGATGGAAGTGTGATAGATCGTCGGTGGTGTGGGGAGGCGGAGTCACCTAGTGCAG”: the binding signal was 11800 fluorescence intensity (a.u.).

Consider “GCCGCCGCCTCCTTCTTCCCCACCGCCGCGGCCGGCCTCTCGGAGTCACCTAGTGCAG”, for which the binding signal was 9040 fluorescence intensity (a.u.).

Turning to “ACATTCATCGTGTGATCACAGAAACTTCATACTTTGTTGACGGAGTCACCTAGTGCAG”, the binding signal was 9880 fluorescence intensity (a.u.).

Take “CCGACTGTGTTATGATCCGGTGCTCTCTGTGTACTGTCAGCGGAGTCACCTAGTGCAG”: the binding signal is 9100 fluorescence intensity (a.u.).

On to “TAGGTGTGGTGTGTGGAGAAGCGGTGGACCGACCGACGACCGGAGTCACCTAGTGCAG”, for which the binding signal is 8450 fluorescence intensity (a.u.).

As to “ATCTTACGAAATTTCTTTTCAAGGTTACACTGTTTCCGCTCGGAGTCACCTAGTGCAG”, the binding signal was 8990 fluorescence intensity (a.u.).

In the case of “GATCGTGGGAGGGAGGATTGGCCGGTTGTACTACAGTTGACGGAGTCACCTAGTGCAG”, the binding signal was 8660 fluorescence intensity (a.u.).

In the case of “ACCTCGCGCGCGCAGCTCACGACGCTCGCCCTTGTCGCTTCGGAGTCACCTAGTGCAG”, the binding signal was 9130 fluorescence intensity (a.u.).

Regarding “GAGGTCATTTGTAGATTTGGATGTGTTGCTTTGGGAAATACGGAGTCACCTAGTGCAG”, the binding signal was 9280 fluorescence intensity (a.u.).

For the sequence “CTCACAGTCGTCATCGTCGCTACCGCCGCCGCCGCCGCTGCGGAGTCACCTAGTGCAG”, the binding signal was 8920 fluorescence intensity (a.u.).

For “TGTTTGTGCCGCTGGATTATGCCCCGTTAGCTTCTTTAAACGGAGTCACCTAGTGCAG”, the binding signal was 11500 fluorescence intensity (a.u.).

“GCGCCATGTGTTTTCTAGAGATCGCTCGTGTGGATGCAAGCGGAGTCACCTAGTGCAG”: the binding signal is 9070 fluorescence intensity (a.u.).

For the sequence “TGGTCAAACGTTAAAACAGTCATCAGCGTCGTACATTAAACGGAGTCACCTAGTGCAG”, the binding signal is 8110 fluorescence intensity (a.u.).

With “ACCACCAACCTTCGTCTCCGCCGCCTCCGCCTCTCTCCTTCGGAGTCACCTAGTGCAG”, the binding signal was 10300 fluorescence intensity (a.u.).

On to “TTTCTTCTGCTGGTCTTGATGGCAACATCCGACCCCTTTCCGGAGTCACCTAGTGCAG”, for which the binding signal was 8250 fluorescence intensity (a.u.).

With “CATCTTCTTCAACCTGTGATCATCATTCAGTAGTTAAAGCCGGAGTCACCTAGTGCAG”, the binding signal was 9170 fluorescence intensity (a.u.).

Take “TGTATATTGCAATCCTCTGTTTTACACTTCAATTCTTATCCGGAGTCACCTAGTGCAG”: the binding signal was 12300 fluorescence intensity (a.u.).

With “TATTCTCATGCCTTTGACTTTCTAAATCAACCTTTTTTTACGGAGTCACCTAGTGCAG”, the binding signal is 10700 fluorescence intensity (a.u.).

For the sequence “TCCATTTCCTCCAGTTTCATTTCTAGTCTCTACCATCTGACGGAGTCACCTAGTGCAG”, the binding signal was 13600 fluorescence intensity (a.u.).

Consider “TCGATGTCATAAAAAAAGTGTTTTTTTTCCCTTTTCTTTTCGGAGTCACCTAGTGCAG”, for which the binding signal is 9760 fluorescence intensity (a.u.).

In the case of “GCCGCCACCCACCCACAACCACCGCCGCCTCCGCTCCAGACGGAGTCACCTAGTGCAG”, the binding signal is 8810 fluorescence intensity (a.u.).

Turning to “ACATTACACCCTCTTCTCGTCTCTGGTCCAACCATCCGACCGGAGTCACCTAGTGCAG”, the binding signal is 11300 fluorescence intensity (a.u.).

With “TCCTCCTTGCCTCCTCTTCGCCATTGTCCTAATTCCCATCCGGAGTCACCTAGTGCAG”, the binding signal is 10500 fluorescence intensity (a.u.).

Take “TATATGTGGCCACCGTGCTAGTTCTGGGCTGTTTAGTTGGCGGAGTCACCTAGTGCAG”: the binding signal is 9370 fluorescence intensity (a.u.).
